PubChem BioAssay AID1259308 – NCATS, 2017
Shown is an unselected part of about 59,000 deposited reagents. About 1,510 of them (2.6%) were called active. 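Calls use total luciferase alone and ignore viability, so some active siRNAs may act by altering cell number.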 Entries without a mark were called inactive. Reagents against one gene are numbered here. Not all columns of the deposit are shown.

Purpose: 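Candidate targets for better recombinant protein yield in mammalian cells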 (primary screen)
Cell system: human HEK293 embryonic kidney cells stably expressing firefly luciferase (HEK-CMV-Luc2-Hygro)
Knock-down reagent: single siRNA against human genes, 0.8 pmol siRNA per well
Timing: 72 h
Measured: 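Luciferase light (ONE-Glo) measured on one replicate plate set and viability (CellTiter-Glo) on the other, scaled to a negative control siRNA, with robust z-scores and luciferase per cell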
Direction: total luciferase, z-score and total luciferase, % of control: higher = more reporter protein produced; luciferase per cell, z-score: higher = more reporter output per viable cell
Active means: 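An siRNA counts as active if its total luciferase robust z-score exceeds 3; genes with two or more such siRNAs out of three were retested with fresh siRNAs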
Meaning of the calls: active = raised luciferase; inactive = no rise

| target gene | reagent | total luciferase, z-score | total luciferase, % of control | luciferase per cell, z-score |
| --- | --- | --- | --- | --- |
| CT55 | 1 | -0.681 | 68.3 | -0.369 |
| CT55 | 2 | -1.94 | 43.3 | -2.66 |
| CT55 | 3 | 0.293 | 87.7 | -0.0011 |
| INSR | 1 | -1.39 | 54.3 | -0.91 |
| INSR | 2 | -0.0334 | 81.2 | 0.257 |
| INSR | 3 | -0.818 | 65.6 | -1.37 |
| PACS1 | 1 | 1.48 | 111 | 0.797 |
| PACS1 | 2 | -0.0643 | 80.6 | -0.518 |
| PACS1 | 3 | 0.298 | 87.8 | -0.427 |
| LNPEP | 1 | -0.496 | 72 | -0.597 |
| LNPEP | 2 | -0.761 | 66.8 | -1.21 |
| LNPEP | 3 | 3.21 (active) | 146 | 2.27 |
| ZNF786 | 1 | -1.19 | 58.1 | 2.1 |
| ZNF786 | 2 | 0.775 | 97.3 | 0.808 |
| ZNF786 | 3 | -0.584 | 70.3 | -0.889 |
| NUGGC | 1 | -0.267 | 76.6 | -0.226 |
| NUGGC | 2 | 0.424 | 90.3 | -0.134 |
| NUGGC | 3 | 0.369 | 89.2 | 0.0887 |
| ZBTB21 | 1 | 0.0647 | 83.2 | 0.61 |
| ZBTB21 | 2 | -0.375 | 74.4 | -0.243 |
| ZBTB21 | 3 | 2.03 | 122 | 1.43 |
| FBXO27 | 1 | -1.7 | 48.1 | -1.91 |
| FBXO27 | 2 | -0.00927 | 81.7 | -0.119 |
| FBXO27 | 3 | 1.98 | 121 | 1.31 |
| PCDHA11 | 1 | 0.0867 | 83.6 | -0.677 |
| PCDHA11 | 2 | -0.644 | 69.1 | -1.31 |
| PCDHA11 | 3 | 0.417 | 90.2 | 0.0714 |
| DNAAF4 | 1 | -0.561 | 70.7 | 0.991 |
| DNAAF4 | 2 | 0.513 | 92.1 | 0.891 |
| DNAAF4 | 3 | 0.411 | 90.1 | -0.173 |
| OR6C4 | 1 | 0.461 | 91 | -0.109 |
| OR6C4 | 2 | -0.221 | 77.5 | 0.151 |
| OR6C4 | 3 | -0.29 | 76.1 | -0.0571 |
| MALL | 1 | -0.266 | 76.6 | -0.223 |
| MALL | 2 | 0.0791 | 83.5 | -0.51 |
| MALL | 3 | -1.13 | 59.4 | -0.314 |
| UNKL | 1 | -0.426 | 73.4 | -0.905 |
| UNKL | 2 | -0.164 | 78.6 | -0.636 |
| UNKL | 3 | 0.314 | 88.1 | 0.14 |
| UNKL | 4 | 2.5 | 132 | 1.05 |
| UNKL | 5 | 1.63 | 114 | 0.989 |
| UNKL | 6 | 0.582 | 93.5 | 0.288 |
| GLTPD2 | 1 | -0.0951 | 80 | 0.115 |
| GLTPD2 | 2 | 0.304 | 87.9 | 0.108 |
| GLTPD2 | 3 | -0.392 | 74.1 | -0.394 |
| SLC71A2 | 1 | -0.115 | 79.6 | 0.129 |
| SLC71A2 | 2 | 0.179 | 85.5 | 0.00436 |
| SLC71A2 | 3 | 0.87 | 99.2 | 1.4 |
| KRTAP27-1 | 1 | 0.0135 | 82.2 | 0.492 |
| KRTAP27-1 | 2 | 1.23 | 106 | 1.37 |
| KRTAP27-1 | 3 | -0.633 | 69.3 | -0.0865 |
| RAB24 | 1 | -0.0916 | 80.1 | -0.626 |
| RAB24 | 2 | -0.212 | 77.7 | -0.433 |
| RAB24 | 3 | 0.0913 | 83.7 | 1.23 |
| MYH1 | 1 | 0.343 | 88.7 | 0.277 |
| MYH1 | 2 | -0.921 | 63.6 | -0.747 |
| MYH1 | 3 | -0.886 | 64.3 | -0.871 |
| ACTL7B | 1 | 2.09 | 123 | 1.36 |
| ACTL7B | 2 | -0.224 | 77.4 | -0.42 |
| ACTL7B | 3 | -0.127 | 79.4 | -0.525 |
| KIF5A | 1 | -0.215 | 77.6 | -0.258 |
| KIF5A | 2 | -2.36 | 35 | -1.76 |
| KIF5A | 3 | 0.158 | 85 | 1.21 |
| CCNG1 | 1 | 0.913 | 100 | 1.47 |
| CCNG1 | 2 | 1.29 | 108 | 0.812 |
| CCNG1 | 3 | -0.401 | 73.9 | -0.613 |
| USP30 | 1 | 1.01 | 102 | 1.78 |
| USP30 | 2 | -0.133 | 79.2 | -0.413 |
| USP30 | 3 | 4.09 (active) | 163 | 3.1 |
| ABCC1 | 1 | -1.36 | 54.8 | -1.18 |
| ABCC1 | 2 | -0.00674 | 81.8 | 0.861 |
| ABCC1 | 3 | 0.797 | 97.7 | 0.908 |
| ESRRB | 1 | -0.992 | 62.2 | -0.63 |
| ESRRB | 2 | -0.22 | 77.5 | 0.118 |
| ESRRB | 3 | -0.567 | 70.6 | 0.0109 |

Ordered by “luciferase per cell, z-score” (highest first): 4 of the entries above
| target gene | reagent | total luciferase, z-score | total luciferase, % of control | luciferase per cell, z-score |
| --- | --- | --- | --- | --- |
| UNKL | 5 | 1.63 | 114 | 0.989 |
| UNKL | 6 | 0.582 | 93.5 | 0.288 |
| GLTPD2 | 1 | -0.0951 | 80 | 0.115 |
| GLTPD2 | 2 | 0.304 | 87.9 | 0.108 |
